According to publication PMC12204631:
No constants are given. Whether binding was seen depends on the method and setting. Binding seen in cells or lysates may run through a third protein. Here binding means that the protein was enriched with, or labelled near, the bait; the list need not be complete. Sequences can lack the tags named with a protein.

B1: KIC1 (protein, UniProt P38692 1-1080)
chain: MTTKPQNSKQGLAEGEMDVSSLFKRTEVIGRGKFGVVYKGYNVKTGRVYAIKVLNLDSDSDEVEDVQREIQFLASLKQISNITRYYGSYLKDTSLWIIMEHCAGGSLRSLLRPGKIDEKYIGVIMRELLVALKCIHKDNVIHRDIKAANVLITNEGNVKLCDFGVAAQVNQTSLRRQTMAGTPYWMAPEVIMEGVYYDTKVDIWSLGITTYEIATGNPPYCDVEALRAMQLIIKSKPPRLEDRSYSTSLKEFIALCLDEDPKERLSADDLLKSKFIRAHKATPTSILKELISRYLLFRDKNKNKYKIEGSIPENEPSKPSEAPKPSQNGGGDEAQKSIASNDNEIKRVNEGDVEMKWDFDSLSSSDYIIENNINLDALAEDNNEWATAQHDLFNYAYPDEDSYYFDPTSHNTRPFVYQGTTIGKGYPGTIAQNSTLNAPVTNNYTNSKYPSKMVAGTTNTSGTHTAGPMTSSKRLESKAPKQLLELFEDNEIITAENDVNTEAPKISKSISSLNAGNSSRDDFIPSISNEVNGNINNNKMRPHLPPLSSGNNYYSQSTPALPLLQTKFNKTSKGPPTSGLTTAPTSIEIEIPEELPNSALPTPASADPVLIPSTKARSSTVTAGTPSSSSSIQYKSPSNVPRRLTVSNNRPEHCPSTITNQKLGSAVASNSGISSTPNNSNNYNNNTDSENSRGSSGSNTANSTQMGITNPGNVTKLSTHKASSPSRPLFGVGTSPNRKPAGSPTQNIGHNSTHTNLAPPPTMKPMANSKDNKDILLQPLNSIPSSSTLNTISGNSSNNLTSSNYFSNEKEGSRVNGDFKRNNPNLKLQMPLPTPVVRNKLLDPNTATSQNNNGMPGSAGISTNENINQFGFNTSSASNIPVSMTPISEKHIDFGGKIKRSQSISNRKNSSASEHPLNILGSSVSGNVSGIGNNNVGSNNNSGPNNSVPLSANTGNTTIKANSTTIATSSSAAASTTAPISQQTIPSGTQFNHILSSAATAANSVNSLGFGMCPPPQSLQMEMFLDLESFLPGKQRRVDRKPQVLKELENLLQMFEEGLPCIEHALKEQLISTPIKDNEH
B2: SPC42 (protein, UniProt P36094 1-363)
chain: MNGSPTPKRYSSKSSRLYDDYYNIPYQYSNPTPMNRDYNDVGSRINADKLVPEEYKRNTEFINKAVQQNKELNFKLREKQNEIFELKKIAETLRSKLEKYVDITKKLEDQNLNLQIKISDLEKKLSDANSTFKEMRFPKVKDPMVDDDPVSENYDQINVPKHRAPDATGNPRTTNKVSNTSDQDSRLKAIERTLSVLTNYVMRSEDGNNDRMSPLPSPLNTILPINNRLNFQEPKRYNPTVKVNPSDDDIMMYESAELKRVEEEIEELKRKILVRKKHDLRKLSLNNQLQELQSMMDGDDNIKLDNVSKHNHATHRHSSQSSRDYSPSSDACLECSNDLYEKNRVKPENNMSETFATPTPNNR
B3: CNM67 (protein, UniProt P53865 1-581)
chain: MTDFDLMNFPFHERLDSPVSENGEIKDGEPIPQNWLNENHVGKSILPLFVNPEDVINCNFSNARDSYEENKSPSMDQMNYARNTSYQESPGLQERPKNEKDKSPIGTDVHKKDVPNFIHSTPRENSSKHFTRANEQASAQPTDEHTSPDISIEDCNGAKIFLQNSLSKEDFRMLENVILGYQKKVIELGRDNLRQEERANSLQKELEAATKSNDKTLDNKKKIEEQTVLIENLTKDLSLNKEMLEKANDTIQTKHTALLSLTDSLRKAELFEIPIGILFFDLYDSEENSSKLDHILQEKYPNIKGFLCASQQEELSRISQRFKNAKAEAEDLRNELENKKIEIQTMREKNNTLIGTNKTLSKQNKILCDKFDKLTIDEKEILKGCNEEIKIKLERLNERLGSWEKSKEKYETSLKDKEKMLADAEKKTNTLSKELDNLRSRFGNLEGNTSERITIKNILQSRPDISAEECNFLMVEQIDSANLTTLQNTVKEIVLAVGIPYPKLRRKIPLLAIKLKYENIMLSNFAQRLHRQVYSQEMNLKKFTDQAYYDFMSTRRMDSIDHHLERCLDHLYDHILEKMVK
B4: CSM1 (protein, UniProt P25651 1-190)
chain: MDPLTVYKNSVKQQIDSADLLVANLVNENFVLSEKLDTKATEIKQLQKQIDSLNAQVKELKTQTSQQAENSEVIKDLYEYLCNVRVHKSYEDDSGLWFDISQGTHSGGSSDDYSIMDYKLGFVKGQAQVTEVIYAPVLKQRSTEELYSLQSKLPEYLFETLSFPLSSLNQFYNKIAKSLNKKREKKDETE
B5: KIN4 (protein, UniProt Q01919 1-800)
chain: MASVPKRHTYGGNVVTDRDRHSLQRNNEILHPIHKNQRKHATFGPYIIGSTLGEGEFGKVKLGWTKASSSNEVPKQVAIKLIRRDTIKKDADKEIKIYREINALKHLTHPNIIYLEEVLQNSKYIGIVLEFVSGGEFYKYIQRKRRLKESSACRLFAQLISGVNYMHYKGLVHRDLKLENLLLDKHENLVITDFGFVNEFFEDNELMKTSCGSPCYAAPELVVSTKAYEARKADVWSCGVILYAMLAGYLPWDDDHENPTGDDIARLYKYITQTPLKFPEYITPIPRDLLRRILVPNPRRRINLQTIKRHVWLKPHEAFLSIQPNYWDEHLQKERPKPPNKGDVGRHSTYSSSASSYSKSRDRNSLIIESTLEQHRMSPQLATSRPASPTFSTGSKVVLNDTKNDMKESNINGERTSASCRYTRDSKGNGQTQIEQVSARHSSRGNKHTSVAGLVTIPGSPTTARTRNAPSSKLTEHVKDSSQTSFTQEEFHRIGNYHVPRSRPRPTSYYPGLSRNTADNSLADIPVNKLGSNGRLTDAKDPVPLNAIHDTNKATISNNSIMLLSEGPAAKTSPVDYHYAIGDLNHGDKPITEVIDKINKDLTHKAAENGFPRESIDPESTSTILVTKEPTNSTDEDHVESQLENVGHSSNKSDASSDKDSKKIYEKKRFSFMSLYSSLNGSRSTVESRTSKGNAPPVSSRNPSGQSNRSNIKITQQQPRNLSDRVPNPDKKINDNRIRDNAPSYAESENPGRSVRASVMVSTLREENRSELSNEGNNVEAQTSTARKVLNFFKRRSMRV
B6: SPC29 (protein, UniProt P33419 1-253)
chain: MDYSNFGNSASKKFQDDTLNRVRKEHEEALKKLREENFSSNTSELGNKKHYRAQERMSSPLHRLSPTGKSDDRKVKSPLDDKLRRQLREGNTRLPPPPFSSYGMPPTNRSNLDRIRRRTSSPVRTDKFASQNVIDDQRLEIKYLERIVYDQGTVIDNLTSRITRLESFILNSISDRGDKNFASLEHSRSFSGFPTNKTYGLQMGGLYENDMPYRRSSDNINKEGAREDRSSQIHIENESTEDILKILSSSFHN
B7: SPC72 (protein, UniProt P39723 1-622)
chain: MVRRWIPSGRHLRNNDNTGDDDDSEFTNSMDSGMSIPSLRDSMTTRSSHNDPIKPALMNDSNKVKNLEKELTNAKIKIQVLYEYIRRIPNKDGNAPSLGNDTDFRNSIIEGLNLEINKLKQDLKAKEVEYQDTLQFVQENLENSESIVNTINHLLSFILTHFNEQDENAHLLDKEERETLEETLELSSDYVLEKMDTLSKFIIQFLQDFLHSKSRAESKQDKEEFLSLAQSSPAGSQLESRDSPSSKEENTDGGYQNDEIHDSNNHIDTENVMANSTSLPISAVESRFEKTLDTQLEIVIENLHKEYDQFINSIRLKFEKSQKLEKIIASKLNEQSHLLDSLELEENSSSVIEKQDHLISQLKEKIESQSVLINNLEKLKEDIIKMKQNEKVLTKELETQTKINKLKENNWDSYINDLEKQINDLQIDKSEEFHVIQNQLDKLDLENYQLKNQLNTLDNQKLILSQYESNFIKFNQNLLLHLDSIFNILQKILQESSIAQFDRKMKSIKSVPNALKNLNLIQPKLESLYTFIETALESIINSYISSLISMETPEQPHQQGNELTATPNKELTLRIEELQRRWISERERRKLDANASEARIKALEQENESLRSKLFNLSINNP

molecular target: T1, 6HIS-HA-JHD2 (S. cerevisiae) (UniProt P47156); test: affinity purification with mass spectrometry; whole cell extracts of a wild-type strain with 6HIS-HA-JHD2 induced from the GAL1 promoter for 6 hours; Ni-NTA agarose and anti-HA agarose beads at 4°C for 24 hours; proteins found with the empty vector strain excluded
T1 sequence: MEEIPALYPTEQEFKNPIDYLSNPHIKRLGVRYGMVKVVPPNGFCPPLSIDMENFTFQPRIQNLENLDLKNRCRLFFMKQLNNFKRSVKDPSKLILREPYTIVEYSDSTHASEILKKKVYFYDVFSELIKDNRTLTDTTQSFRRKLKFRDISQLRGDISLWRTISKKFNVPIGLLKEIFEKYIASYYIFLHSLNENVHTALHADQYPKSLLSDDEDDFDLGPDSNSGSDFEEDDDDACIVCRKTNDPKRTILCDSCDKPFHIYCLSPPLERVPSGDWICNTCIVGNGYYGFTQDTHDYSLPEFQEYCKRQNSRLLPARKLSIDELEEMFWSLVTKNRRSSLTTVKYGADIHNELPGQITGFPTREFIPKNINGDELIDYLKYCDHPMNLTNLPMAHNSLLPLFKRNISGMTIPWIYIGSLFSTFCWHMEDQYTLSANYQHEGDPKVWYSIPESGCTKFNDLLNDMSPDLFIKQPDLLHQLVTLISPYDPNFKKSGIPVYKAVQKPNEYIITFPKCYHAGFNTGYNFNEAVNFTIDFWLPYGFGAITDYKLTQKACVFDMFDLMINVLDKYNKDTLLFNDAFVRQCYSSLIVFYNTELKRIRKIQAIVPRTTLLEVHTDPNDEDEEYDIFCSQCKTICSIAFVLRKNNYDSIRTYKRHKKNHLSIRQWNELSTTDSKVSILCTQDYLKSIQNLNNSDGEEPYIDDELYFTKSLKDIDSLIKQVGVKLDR

binding, binds:
B1, B2, B3, B4, B5, B6, B7
